PubChem BioAssay AID504764 – Drosophila RNAi Screening Center – 2011
The deposit covers about 22,000 reagents; this is an unselected part of those with a known target gene and a result. Of all reagents, 403 (1.9%) were called active. 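Unnormalised raw counts per well; ratio z-scores behind the hit calls and whether each hit raises or lowers signal are not deposited.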 Reagent sequences are not shown. The record does not give: the amount of reagent.

Screen: 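Genes whose knock-down alters Notch-dependent transcription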 (primary screen)
Cell system: Drosophila Kc167 cells
Reagent: long dsRNA against Drosophila genes
Duration: about 5 days (4 days dsRNA, then 24 h after transfection)
Challenge: transfection of constitutively active membrane-tethered Notch lacking the extracellular domain, read 24 h later
Measured: 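Firefly luciferase from an E(spl)m3 reporter with active Notch, plus control-promoter and uninduced reporter wells for normalisation; unnormalised counts, duplicate wells a and b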
Direction: induced reporter light, run 1, well a and induced reporter light, run 1, well b: higher = more light from the Notch target reporter with active Notch; control promoter light, run 1, well a and control promoter light, run 1, well b: higher = more light from the viral control promoter (cell number, transfection, viability); uninduced reporter light, run 1, well a: higher = more light from the Notch target reporter without active Notch
Active means: 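Wells with low control signal or poorly matching duplicates excluded; duplicates averaged; per source plate, z beyond ±2 for induced/control log2 ratio or beyond ±1.8 for induced/uninduced marks a hit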
Meaning of the calls: active = modifier hit (raised or lowered Notch signal); inactive = not a hit

The opening 2 records as a preview:
esg [SID104183322]: induced reporter light, run 1, well a = 1.38e5; induced reporter light, run 1, well b = 1.38e5; control promoter light, run 1, well a = 1.68e5; control promoter light, run 1, well b = 1.71e5; uninduced reporter light, run 1, well a = 14425; call = inactive
Fpps [SID104187221]: induced reporter light, run 1, well a = 1.76e5; induced reporter light, run 1, well b = 1.49e5; control promoter light, run 1, well a = 1.93e5; control promoter light, run 1, well b = 1.69e5; uninduced reporter light, run 1, well a = 13932; call = inactive

The listing, from the start:
esg [SID104183322]: induced reporter light, run 1, well a = 1.38e5; induced reporter light, run 1, well b = 1.38e5; control promoter light, run 1, well a = 1.68e5; control promoter light, run 1, well b = 1.71e5; uninduced reporter light, run 1, well a = 14425; call = inactive
Fpps [SID104187221]: induced reporter light, run 1, well a = 1.76e5; induced reporter light, run 1, well b = 1.49e5; control promoter light, run 1, well a = 1.93e5; control promoter light, run 1, well b = 1.69e5; uninduced reporter light, run 1, well a = 13932; call = inactive
CG1674 [SID104196934]: induced reporter light, run 1, well a = 1.01e5; induced reporter light, run 1, well b = 1.19e5; control promoter light, run 1, well a = 2.41e5; control promoter light, run 1, well b = 2.15e5; uninduced reporter light, run 1, well a = 8710; call = inactive
mei-P26 [SID104197527]: induced reporter light, run 1, well a = 6715; induced reporter light, run 1, well b = 6200; control promoter light, run 1, well a = 9585; control promoter light, run 1, well b = 7182; uninduced reporter light, run 1, well a = 2910; call = inactive
CG6280 [SID104186764]: induced reporter light, run 1, well a = 77025; induced reporter light, run 1, well b = 83680; control promoter light, run 1, well a = 1.03e5; control promoter light, run 1, well b = 92460; uninduced reporter light, run 1, well a = 6805; call = inactive
ey [SID104196965]: induced reporter light, run 1, well a = 96740; induced reporter light, run 1, well b = 92830; control promoter light, run 1, well a = 1.53e5; control promoter light, run 1, well b = 1.63e5; uninduced reporter light, run 1, well a = 7235; call = inactive
tw [SID104198329]: induced reporter light, run 1, well a = 1.34e5; induced reporter light, run 1, well b = 1.90e5; control promoter light, run 1, well a = 1.85e5; control promoter light, run 1, well b = 1.74e5; uninduced reporter light, run 1, well a = 11720; call = inactive
CG15263 [SID104181766]: induced reporter light, run 1, well a = 1.43e5; induced reporter light, run 1, well b = 1.33e5; control promoter light, run 1, well a = 1.37e5; control promoter light, run 1, well b = 1.68e5; uninduced reporter light, run 1, well a = 11142; call = inactive
CG8738 [SID104187048]: induced reporter light, run 1, well a = 1.67e5; induced reporter light, run 1, well b = 1.77e5; control promoter light, run 1, well a = 1.84e5; control promoter light, run 1, well b = 1.91e5; uninduced reporter light, run 1, well a = 17125; call = inactive
ase [SID104198531]: induced reporter light, run 1, well a = 1.37e5; induced reporter light, run 1, well b = 1.49e5; control promoter light, run 1, well a = 2.15e5; control promoter light, run 1, well b = 2.57e5; uninduced reporter light, run 1, well a = 10035; call = inactive
wfs1 [SID104195468]: induced reporter light, run 1, well a = 1.59e5; induced reporter light, run 1, well b = 2.10e5; control promoter light, run 1, well a = 1.87e5; control promoter light, run 1, well b = 2.21e5; uninduced reporter light, run 1, well a = 16540; call = inactive
nis [SID104180082]: induced reporter light, run 1, well a = 1.87e5; induced reporter light, run 1, well b = 2.46e5; control promoter light, run 1, well a = 2.37e5; control promoter light, run 1, well b = 2.67e5; uninduced reporter light, run 1, well a = 18560; call = inactive
